Assay results from patent US20210206817A1, “Metabolically Stable Apelin Analogs in the Treatment of Disease Mediated by the Apelin Receptor” (priority 2014, published 2021).
For at least one compound, name, drawing or mass did not settle the structure. Where a SMILES comes first, the peptide text is derived from it.

How the values were obtained:
[1] = molecular target: T1, rat apelin receptor-EGFP (Rattus norvegicus, UniProt Q9JHG3); assay: [125I]pE13F radioligand binding on CHO membrane preparations
T1 construct: expressed in transfected cells
T1 sequence (Q9JHG3 1-377): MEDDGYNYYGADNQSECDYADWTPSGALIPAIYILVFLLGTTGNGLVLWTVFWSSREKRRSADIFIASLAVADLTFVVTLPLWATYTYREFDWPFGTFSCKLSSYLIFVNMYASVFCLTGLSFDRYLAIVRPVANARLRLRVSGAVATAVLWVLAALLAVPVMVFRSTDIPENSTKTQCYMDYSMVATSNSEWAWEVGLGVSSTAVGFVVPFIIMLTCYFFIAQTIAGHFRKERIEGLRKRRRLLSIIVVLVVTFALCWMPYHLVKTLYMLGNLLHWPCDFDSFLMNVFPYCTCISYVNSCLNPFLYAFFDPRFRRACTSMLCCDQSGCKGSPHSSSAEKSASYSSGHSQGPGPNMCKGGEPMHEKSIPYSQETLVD
Method: Crude membrane preparation from CHO stably expressing the wild-type rat apelin receptor-EGFP, were prepared as previously described (39). […] The reaction was stopped by adding ice-cold binding buffer and filtered through glass microfiber filters (Whatman GF/C filters). Radioactivity was counted in Wizard 1470 Wallac gamma counter (Perkin Elmer, Turku, Finland).

[2] = molecular target: T1, rat apelin receptor-EGFP; assay: Inhibition of forskolin-induced cAMP production (HTRF); format: cell-based; conditions: Table 1

CCCC[C@H](NC(=O)[C@@H]1CCCN1C(=O)[C@@H](C)NC(=O)[C@H](CCCCN)NC(=O)C(C)(C)NC(=O)[C@H](CO)NC(=O)[C@@H](CC(C)C)NC(=O)[C@H](CCCNC(=N)N)NC(=O)[C@@H]1CCCN1C(=O)[C@H](CCCNC(=N)N)NC(=O)[C@H](CCC(N)=O)NC(=O)[C@H](CCCNC(=N)N)NC(=O)[C@H](CCCNC(=N)N)NC(=O)[C@H](Cc1ccccc1)NC(=O)[C@H](CCCCN)NC(C)=O)C(=O)N1CCC[C@H]1C(=O)N[C@@H](Cc1ccc(Br)cc1)C(=O)O [P96] (HELM PEPTIDE1{[ac].K.F.R.R.Q.R.P.R.[dL].S.[Aib].K.[dA].P.[Nle].P.[O=C(O)[C@H](Cc1ccc(Br)cc1)N[*:1]]}$$$$V2.0; C-terminus assumed)
Ki ([1]; competition with [125I]pE13F, CHO membranes, read-out: Ki for the apelin receptor (affinity)): 0.1 ± 0.14 nM
IC50 ([1]; read-out: [125I]pE13F binding IC50, Table 1): 0.11 ± 0.14 nM
IC50 [2]: 0.45 ± 0.07 nM
